Results are given in words; binding and its absence hold for the method and conditions named. Some entries that bind do so weakly or less than the wild type.
Biological target: human CD3 on HuT-78 cells (human) (UniProt P07766)
Assay: flow cytometry, hybridoma supernatant on HuT-78 cells, Alexa 647 anti-human IgG

By UniProt entry, the sequences of proteins in these tests, tags left out. Where a name states a change or a piece, a line headed by the entry shows the natural chain unless it says otherwise.
UniProt P07766: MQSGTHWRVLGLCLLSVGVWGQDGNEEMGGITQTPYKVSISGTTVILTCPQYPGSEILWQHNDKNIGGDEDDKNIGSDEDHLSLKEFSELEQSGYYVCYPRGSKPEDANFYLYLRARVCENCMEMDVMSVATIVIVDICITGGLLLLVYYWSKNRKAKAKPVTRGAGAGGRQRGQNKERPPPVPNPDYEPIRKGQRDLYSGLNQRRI

B1: anti-CD3 monoclonal antibody KM14 (antibody, V domains shown)
VH: QVQLVESGGGVVQPGRSLRLSCEASGFTFSSHGMHWVRQAPGKGLEWVASIWYDGSKKYYADSVKGRFTISRDNSKNTLDLQMNSLRAEDTAVYYCAKTLYYYGSERAHGLDVWGQGTTVTVSS
VL: AIQLTQSPSSLSASVGDRVTITCRASQGISSALAWYQQKPGKAPNLLIYDASSLESGVPSRFSGSGSGTDFTLTISSLQPEDFATYYCQQFNSYPRTFGQGTKVEIK
binding: binds

Reference: US20230406926A1
